Results taken from PubChem BioAssay AID1487 (National Center for Advancing Translational Sciences (NCATS), 2009).
The list shows a part of the results. The main result of the screen is listed elsewhere. These columns were measured beside it and carry no call. Compounds called inactive in the main read-out are mostly missing here. The note in brackets gives the kind of curve behind each potency; many fits are weak.

Experiment: qHTS Assay for Modulators of Lamin A Splicing
Conditions: HeLa LMNA splicing GFP/RFP minigene ratio, 48 h
Method in brief: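 S3 HeLa stable clones carrying a lamin A-EGFP splicing minigene plus DsRed2 were seeded at 600 cells/well in Opti-MEM with 2% FBS, pin-dosed and incubated 48 h at 37°C. Acumen cytometry (488 nm) gave the GFP/RFP total-intensity ratio.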

[1] = measured here: GFP splicing reporter channel
[2] = measured here: RFP viability control channel

Which results are given for `CCCCn1c(=N)n(CCOc2ccc(C)cc2)c2ccccc21`?
AC50 [1]: 35.5 µM [rising, single point]; AC50 [2]: 35.5 µM [rising, single point]

Which AC50 [2] does the source give for `Cn1c(=O)c2c(ncn2Cc2ccc(Cl)cc2)n(C)c1=O` here?
The AC50 was 0.0158 µM [falling, full curve, poor fit].

Which AC50 [1] does the source give for `c1ccc(N2CCN(c3nc(-c4ccccn4)nc4ccccc34)CC2)cc1` here?
Its AC50 is 3.16 µM [rising, full curve, poor fit].

With `Cc1ccc(S(=O)(=O)N(C)CC(=O)Nc2nc3ccccc3s2)cc1` as the compound, how does the AC50 [2] read?
The AC50 was 20 µM [rising, partial curve, poor fit].

Which results are given for `Cc1ccc(-n2ncc3c(=O)n(Cc4cccnc4)cnc32)cc1`?
AC50 [1]: 12.6 µM [rising, single point]; AC50 [2]: 31.6 µM [rising, single point]

With `O=C(O)C12CC3CC(C1)CC(n1ncc(NCc4ccccc4)c(Cl)c1=O)(C3)C2` as the compound, how does the AC50 [1] read?
The AC50 was 35.5 µM [rising, single point].

For `CC(C)(C)NC(=O)C(c1ccncc1)N(Cc1cccs1)C(=O)Cn1nnc(-c2ccc(F)cc2)n1` (stereo not given), which AC50 [1] is on record?
The AC50 was 35.5 µM [falling, single point].

And the AC50 [2]?
Its AC50 is 11.2 µM [rising, partial curve, poor fit].

For `COCCCN=C1NN=C(c2cc(C)n(Cc3ccco3)c2C)CS1`, which AC50 [1] is on record?
Its AC50 is 4.47 µM [rising, full curve, poor fit].

What about the AC50 [2] of the same compound?
The AC50 was 2.82 µM [rising, full curve].

What does the source list for `N#CC(c1cccc(Cl)c1)c1ccc2c(C(F)(F)F)cc(C(F)(F)F)nc2n1` (stereo not given)?
AC50 [1]: 3.55 µM [rising, partial curve]; AC50 [2]: 8.91 µM [rising, partial curve, poor fit]

For `Cc1cccc(N2CCN(C(=O)c3noc4c3CCCCC4)CC2)c1C`, which AC50 [1] is on record?
The AC50 was 35.5 µM [falling, partial curve, poor fit].

For `Cc1ccc(-n2ncc(C(=O)Nc3cc(Cl)ccc3Cl)c2C2CCNCC2)cc1`, which AC50 [1] is on record?
Its AC50 is 31.6 µM [falling, single point].

With `O=c1[nH]n2c(=O)c3c([nH]c2c1N=Nc1cccc(Cl)c1)CCCC3` as the compound, how does the AC50 [2] read?
Its AC50 is 0.891 µM [rising, full curve, poor fit].

With `COc1ccc(C(=O)CSc2nnc(-c3cc4ccccc4cc3O)n2Cc2ccco2)cc1` as the compound, how does the AC50 [2] read?
Its AC50 is 10 µM [rising, partial curve, poor fit].

For `COc1ccc(C2C3=C(CCCC3=O)Nc3nc(-c4cc(OC)c(OC)c(OC)c4)nn32)cc1OC` (stereo not given), which AC50 [2] is on record?
The AC50 was 8.91 µM [rising, partial curve, poor fit].

For `COCCCNC(=O)c1ccc(CN2CCc3ccccc3C2)cc1`, which AC50 [2] is on record?
Its AC50 is 4.47 µM [falling, full curve, poor fit].
